Data reported in the supplement of paper PMC10849652.
The other results are listed elsewhere or left out.

By UniProt entry, the sequences of proteins in these tests, tags left out. Where a name states a change or a piece, a line headed by the entry shows the natural chain unless it says otherwise.
UniProt Q15650: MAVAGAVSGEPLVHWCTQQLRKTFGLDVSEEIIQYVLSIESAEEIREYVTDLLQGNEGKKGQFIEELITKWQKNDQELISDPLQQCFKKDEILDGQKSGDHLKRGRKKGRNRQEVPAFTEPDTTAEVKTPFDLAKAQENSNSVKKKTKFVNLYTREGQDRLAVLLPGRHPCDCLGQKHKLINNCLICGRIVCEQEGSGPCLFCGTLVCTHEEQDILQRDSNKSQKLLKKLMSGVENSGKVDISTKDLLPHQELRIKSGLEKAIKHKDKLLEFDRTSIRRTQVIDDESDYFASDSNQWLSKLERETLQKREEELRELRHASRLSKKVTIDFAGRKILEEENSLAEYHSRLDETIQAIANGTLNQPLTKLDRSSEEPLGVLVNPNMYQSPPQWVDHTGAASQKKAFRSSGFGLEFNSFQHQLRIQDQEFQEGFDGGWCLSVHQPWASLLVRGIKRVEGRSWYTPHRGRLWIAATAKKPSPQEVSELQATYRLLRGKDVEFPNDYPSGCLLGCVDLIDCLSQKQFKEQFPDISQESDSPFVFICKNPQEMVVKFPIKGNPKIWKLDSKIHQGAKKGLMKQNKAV
UniProt Q9Y5L0: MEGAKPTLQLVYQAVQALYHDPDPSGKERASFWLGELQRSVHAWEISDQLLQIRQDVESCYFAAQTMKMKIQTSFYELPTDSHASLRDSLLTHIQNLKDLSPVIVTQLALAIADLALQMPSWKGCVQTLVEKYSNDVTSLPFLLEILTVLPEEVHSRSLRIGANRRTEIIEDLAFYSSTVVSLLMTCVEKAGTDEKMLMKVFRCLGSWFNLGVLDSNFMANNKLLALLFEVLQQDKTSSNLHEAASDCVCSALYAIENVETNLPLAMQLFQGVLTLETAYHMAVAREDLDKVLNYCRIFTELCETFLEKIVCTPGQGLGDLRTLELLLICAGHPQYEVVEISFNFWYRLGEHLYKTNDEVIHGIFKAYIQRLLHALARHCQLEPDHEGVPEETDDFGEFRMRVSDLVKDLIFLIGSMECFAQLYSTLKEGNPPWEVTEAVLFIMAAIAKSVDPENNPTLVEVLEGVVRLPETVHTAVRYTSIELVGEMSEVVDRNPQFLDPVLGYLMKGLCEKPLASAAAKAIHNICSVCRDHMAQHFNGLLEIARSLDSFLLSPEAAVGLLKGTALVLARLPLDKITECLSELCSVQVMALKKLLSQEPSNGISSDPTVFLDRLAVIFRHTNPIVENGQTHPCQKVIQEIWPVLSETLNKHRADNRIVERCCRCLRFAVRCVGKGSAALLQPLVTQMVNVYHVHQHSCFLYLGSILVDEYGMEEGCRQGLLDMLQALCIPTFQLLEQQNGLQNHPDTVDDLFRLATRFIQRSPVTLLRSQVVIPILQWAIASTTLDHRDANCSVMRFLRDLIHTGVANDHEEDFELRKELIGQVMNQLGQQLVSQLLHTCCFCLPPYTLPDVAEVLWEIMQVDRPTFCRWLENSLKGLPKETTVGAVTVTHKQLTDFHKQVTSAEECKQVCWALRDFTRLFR
UniProt A5PLN9: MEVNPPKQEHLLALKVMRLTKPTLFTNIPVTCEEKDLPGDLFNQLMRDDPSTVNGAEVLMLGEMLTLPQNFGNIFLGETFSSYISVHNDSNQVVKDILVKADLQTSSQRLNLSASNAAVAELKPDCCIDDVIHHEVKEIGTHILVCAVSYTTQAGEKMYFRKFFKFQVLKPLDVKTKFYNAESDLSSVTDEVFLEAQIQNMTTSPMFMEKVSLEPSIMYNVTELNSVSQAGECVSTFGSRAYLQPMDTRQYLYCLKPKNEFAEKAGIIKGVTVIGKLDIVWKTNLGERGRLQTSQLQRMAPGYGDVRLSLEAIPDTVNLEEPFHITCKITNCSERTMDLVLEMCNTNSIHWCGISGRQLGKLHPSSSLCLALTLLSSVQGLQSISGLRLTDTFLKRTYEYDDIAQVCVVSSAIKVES
UniProt Q9UPQ9, whole entry, looked up: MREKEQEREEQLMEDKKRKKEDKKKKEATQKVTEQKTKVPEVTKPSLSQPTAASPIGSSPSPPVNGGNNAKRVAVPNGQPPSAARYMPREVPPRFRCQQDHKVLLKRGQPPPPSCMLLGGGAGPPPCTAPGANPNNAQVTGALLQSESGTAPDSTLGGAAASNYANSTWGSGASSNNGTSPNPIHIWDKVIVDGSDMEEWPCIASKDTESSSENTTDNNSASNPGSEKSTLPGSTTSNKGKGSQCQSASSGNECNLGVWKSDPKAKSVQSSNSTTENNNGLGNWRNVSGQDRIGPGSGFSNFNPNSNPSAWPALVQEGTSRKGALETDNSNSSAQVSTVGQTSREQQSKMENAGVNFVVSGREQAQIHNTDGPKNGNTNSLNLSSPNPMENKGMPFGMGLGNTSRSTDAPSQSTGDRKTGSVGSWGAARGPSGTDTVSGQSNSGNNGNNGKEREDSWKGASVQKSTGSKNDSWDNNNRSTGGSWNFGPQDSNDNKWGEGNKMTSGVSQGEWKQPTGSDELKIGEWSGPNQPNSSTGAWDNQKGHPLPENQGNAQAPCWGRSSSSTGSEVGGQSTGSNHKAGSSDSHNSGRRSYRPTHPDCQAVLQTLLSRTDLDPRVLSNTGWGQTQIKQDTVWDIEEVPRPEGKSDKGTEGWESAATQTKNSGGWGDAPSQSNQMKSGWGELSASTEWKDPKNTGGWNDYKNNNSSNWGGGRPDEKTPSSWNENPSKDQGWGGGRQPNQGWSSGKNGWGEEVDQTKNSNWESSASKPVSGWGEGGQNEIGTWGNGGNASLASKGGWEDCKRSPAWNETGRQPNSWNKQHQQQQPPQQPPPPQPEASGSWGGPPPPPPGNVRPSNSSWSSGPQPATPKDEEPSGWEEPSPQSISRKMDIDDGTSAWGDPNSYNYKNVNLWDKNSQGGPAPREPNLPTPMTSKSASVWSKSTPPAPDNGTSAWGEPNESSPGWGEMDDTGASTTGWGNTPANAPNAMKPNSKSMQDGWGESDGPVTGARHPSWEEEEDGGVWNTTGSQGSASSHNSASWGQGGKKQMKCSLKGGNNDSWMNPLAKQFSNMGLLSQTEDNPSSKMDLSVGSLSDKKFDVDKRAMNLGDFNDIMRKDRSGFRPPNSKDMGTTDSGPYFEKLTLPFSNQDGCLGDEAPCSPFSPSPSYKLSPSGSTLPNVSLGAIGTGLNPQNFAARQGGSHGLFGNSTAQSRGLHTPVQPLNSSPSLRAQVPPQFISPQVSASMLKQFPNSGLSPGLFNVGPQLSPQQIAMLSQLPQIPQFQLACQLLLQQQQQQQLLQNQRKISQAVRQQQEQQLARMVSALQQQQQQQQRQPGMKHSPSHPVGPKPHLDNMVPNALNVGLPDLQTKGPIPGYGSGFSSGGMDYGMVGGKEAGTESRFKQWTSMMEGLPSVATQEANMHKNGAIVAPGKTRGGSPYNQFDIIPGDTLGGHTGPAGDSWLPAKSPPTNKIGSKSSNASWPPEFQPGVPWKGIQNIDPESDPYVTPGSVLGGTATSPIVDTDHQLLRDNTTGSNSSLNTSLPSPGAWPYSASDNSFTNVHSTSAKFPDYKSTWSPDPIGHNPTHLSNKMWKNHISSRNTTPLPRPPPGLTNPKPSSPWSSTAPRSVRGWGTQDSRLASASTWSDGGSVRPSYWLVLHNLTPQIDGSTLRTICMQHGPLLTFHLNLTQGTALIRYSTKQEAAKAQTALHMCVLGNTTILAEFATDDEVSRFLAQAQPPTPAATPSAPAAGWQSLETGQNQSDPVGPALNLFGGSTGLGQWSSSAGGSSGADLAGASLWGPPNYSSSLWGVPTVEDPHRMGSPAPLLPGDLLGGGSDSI
UniProt Q13625: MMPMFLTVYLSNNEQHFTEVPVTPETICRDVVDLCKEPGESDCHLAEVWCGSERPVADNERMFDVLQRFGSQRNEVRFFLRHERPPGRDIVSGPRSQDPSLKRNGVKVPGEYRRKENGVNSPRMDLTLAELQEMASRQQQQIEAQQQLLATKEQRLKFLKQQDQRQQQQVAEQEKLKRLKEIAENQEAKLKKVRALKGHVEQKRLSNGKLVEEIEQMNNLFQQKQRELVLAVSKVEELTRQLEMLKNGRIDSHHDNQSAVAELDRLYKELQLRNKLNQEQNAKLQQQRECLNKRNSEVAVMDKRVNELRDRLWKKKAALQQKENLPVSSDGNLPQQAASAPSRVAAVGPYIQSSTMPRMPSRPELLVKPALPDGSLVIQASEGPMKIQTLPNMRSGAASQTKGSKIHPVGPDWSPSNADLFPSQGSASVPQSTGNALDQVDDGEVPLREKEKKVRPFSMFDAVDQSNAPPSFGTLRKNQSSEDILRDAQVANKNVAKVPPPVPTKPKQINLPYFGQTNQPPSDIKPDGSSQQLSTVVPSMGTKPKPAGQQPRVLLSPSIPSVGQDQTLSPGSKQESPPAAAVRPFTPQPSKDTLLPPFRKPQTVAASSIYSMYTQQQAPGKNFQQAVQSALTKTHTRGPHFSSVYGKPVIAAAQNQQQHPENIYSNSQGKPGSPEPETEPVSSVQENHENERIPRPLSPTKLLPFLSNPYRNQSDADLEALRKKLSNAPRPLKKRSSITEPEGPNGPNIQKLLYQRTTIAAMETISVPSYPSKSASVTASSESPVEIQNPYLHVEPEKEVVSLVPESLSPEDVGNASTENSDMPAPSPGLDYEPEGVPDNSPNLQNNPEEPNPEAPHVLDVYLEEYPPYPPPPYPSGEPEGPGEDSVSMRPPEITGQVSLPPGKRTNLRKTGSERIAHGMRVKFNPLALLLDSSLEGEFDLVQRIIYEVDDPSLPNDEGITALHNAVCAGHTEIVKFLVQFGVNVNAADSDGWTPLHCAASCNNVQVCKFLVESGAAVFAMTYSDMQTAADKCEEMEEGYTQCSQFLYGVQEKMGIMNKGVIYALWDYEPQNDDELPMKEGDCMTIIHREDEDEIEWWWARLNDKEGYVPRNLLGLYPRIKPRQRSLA
UniProt Q15714: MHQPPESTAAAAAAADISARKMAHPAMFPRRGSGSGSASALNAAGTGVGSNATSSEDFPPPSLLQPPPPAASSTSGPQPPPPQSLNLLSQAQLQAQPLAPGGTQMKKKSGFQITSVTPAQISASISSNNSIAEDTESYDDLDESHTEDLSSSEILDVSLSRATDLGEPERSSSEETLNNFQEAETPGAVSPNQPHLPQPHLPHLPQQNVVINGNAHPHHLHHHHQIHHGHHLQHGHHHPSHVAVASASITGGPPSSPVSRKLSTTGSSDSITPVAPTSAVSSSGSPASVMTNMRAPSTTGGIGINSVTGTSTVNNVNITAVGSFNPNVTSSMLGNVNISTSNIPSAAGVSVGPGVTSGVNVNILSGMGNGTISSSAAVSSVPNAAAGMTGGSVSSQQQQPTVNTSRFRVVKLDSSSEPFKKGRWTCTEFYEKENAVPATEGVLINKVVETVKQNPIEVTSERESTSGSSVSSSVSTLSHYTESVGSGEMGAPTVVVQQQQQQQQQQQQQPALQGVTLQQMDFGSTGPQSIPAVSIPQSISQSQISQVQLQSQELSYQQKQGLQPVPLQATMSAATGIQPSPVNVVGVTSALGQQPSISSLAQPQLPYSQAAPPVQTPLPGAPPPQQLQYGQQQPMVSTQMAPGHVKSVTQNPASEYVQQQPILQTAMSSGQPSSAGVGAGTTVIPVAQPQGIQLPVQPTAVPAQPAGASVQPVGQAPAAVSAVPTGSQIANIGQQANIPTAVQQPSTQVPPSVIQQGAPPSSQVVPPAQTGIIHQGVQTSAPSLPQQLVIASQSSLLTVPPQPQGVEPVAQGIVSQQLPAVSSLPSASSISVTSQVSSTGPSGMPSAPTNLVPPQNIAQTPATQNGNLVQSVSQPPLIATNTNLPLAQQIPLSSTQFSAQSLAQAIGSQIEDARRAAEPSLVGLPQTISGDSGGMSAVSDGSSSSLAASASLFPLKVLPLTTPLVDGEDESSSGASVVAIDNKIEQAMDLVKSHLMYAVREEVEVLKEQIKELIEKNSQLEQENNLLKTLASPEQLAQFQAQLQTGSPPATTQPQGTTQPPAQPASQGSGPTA
UniProt P28908: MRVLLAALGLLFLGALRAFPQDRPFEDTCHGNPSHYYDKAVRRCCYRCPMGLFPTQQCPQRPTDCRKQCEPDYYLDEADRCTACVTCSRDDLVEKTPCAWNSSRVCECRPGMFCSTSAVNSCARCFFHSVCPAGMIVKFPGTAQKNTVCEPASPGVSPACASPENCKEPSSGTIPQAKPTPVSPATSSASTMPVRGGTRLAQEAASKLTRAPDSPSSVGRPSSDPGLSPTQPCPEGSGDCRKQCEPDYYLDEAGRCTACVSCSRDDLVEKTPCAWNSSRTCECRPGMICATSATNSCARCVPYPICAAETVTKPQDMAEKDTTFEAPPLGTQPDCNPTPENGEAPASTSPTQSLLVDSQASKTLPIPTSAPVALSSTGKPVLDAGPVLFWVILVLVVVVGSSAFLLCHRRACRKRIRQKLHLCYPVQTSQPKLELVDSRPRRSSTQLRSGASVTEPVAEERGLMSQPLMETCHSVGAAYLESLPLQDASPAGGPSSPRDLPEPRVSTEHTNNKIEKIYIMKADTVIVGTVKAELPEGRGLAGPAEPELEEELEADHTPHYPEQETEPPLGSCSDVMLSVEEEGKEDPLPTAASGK

Key:
Test in all cases: log2 fold change, soluble protein after heating vs DMSO (PISA); higher = thermal stabilisation; K562 cells, 10 uM, 30 min; active = over 0.2 and 3.5 SD of the protein, either way, in both replicates (recomputed)
[1] = compound: CN1CCN(CCOc2cc(OC3CCOCC3)c3c(Nc4c(Cl)ccc5c4OCO5)ncnc3c2)CC1 [saracatinib]
Procedure, shortened: (§1)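 K562 cells at 2×10^6 cells/mL were treated for 30 min with 10 μM compound, and aliquots were heated for 3 min over 48°C-58°C before pooling. Extraction used PBS with 0.5% NP-40 at 4°C, and soluble protein was the supernatant after 21,000xg for 90 min, measured by TMTpro 16plex LC-MS/MS with channel sums equalised. Thermal stability values, relative to control samples and from duplicates, are log2 fold changes.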

[2] = compound: CN1CCN(c2nc(C3=C(c4c[nH]c5ccccc45)C(=O)NC3=O)c3ccccc3n2)CC1 [sotrastaurin]
Procedure, shortened: as §1

[3] = compound: CN1CC[C@H](c2c(O)cc(O)c3c(=O)cc(-c4ccccc4Cl)oc23)[C@H](O)C1 [alvocidib]
Procedure, shortened: as §1

[4] = compound: CN1CCc2c(c3ccccc3n2Cc2ccc(C(=O)NO)cc2)C1 [Tubastatin A]
Procedure, shortened: as §1

[5] = compound: CNC(=O)C1=CC=CC=C1NC2=NC(=NC=C2Cl)NC3=C(C=C(C=C3)N4CCOCC4)OC
Procedure, shortened: as §1

[6] = compound: CNC(=O)c1ccc(Nc2ncc(C(F)(F)F)c(NCc3nccnc3N(C)S(C)(=O)=O)n2)cc1 [defactinib]
Procedure, shortened: as §1

[7] = compound: CNCc1ccc(-c2[nH]c3cc(F)cc4c3c2CCNC4=O)cc1 [rucaparib]
Procedure, shortened: as §1

[8] = compound: CNc1nc(-c2ccc3c(N)n[nH]c3c2)cc(N2C[C@@H](C(=O)NC3CCCCC3)CC[C@H]2C)n1
Procedure, shortened: as §1

[9] = compound: COC(=O)N[C@@H](C)CNc1nccc(-c2cn(C(C)C)nc2-c2cc(Cl)cc(NS(C)(=O)=O)c2F)n1 [encorafenib]
Procedure, shortened: as §1

[10] = compound: COC(=O)[C@H](CCSC)NC(=O)C1=C(C=C(C=C1)NC[C@H](CS)N)C2=CC=CC=C2
Procedure, shortened: as §1

[11] = compound: COC1=CC=C(C=C1)CN2C=CC3=C2C=C(C=C3)C(=O)NO
Procedure, shortened: as §1

[12] = compound: CON(C)C(=O)N1N=C(c2cc(F)ccc2F)S[C@@]1(CCCN)c1ccccc1 [filanesib]
Procedure, shortened: as §1

[13] = compound: CO[C@H]1C[C@@H]2CC[C@@H](C)[C@@](O)(O2)C(=O)C(=O)N2CCCC[C@H]2C(=O)O[C@H]([C@H](C)C[C@@H]2CC[C@H](n3cnnn3)[C@H](OC)C2)CC(=O)[C@H](C)/C=C(\C)[C@@H](O)[C@@H](OC)C(=O)[C@H](C)C[C@H](C)/C=C/C=C/C=C/1C [zotarolimus]
Procedure, shortened: as §1

[14] = compound: COc1cc(C(=O)O)ccc1NC(=O)[C@@H]1N[C@@H](CC(C)(C)C)[C@](C#N)(c2ccc(Cl)cc2F)[C@H]1c1cccc(Cl)c1F [idasanutlin]
Procedure, shortened: as §1

[15] = compound: COc1cc(Nc2ncc3c(n2)-c2ccc(Cl)cc2C(c2c(F)cccc2OC)=NC3)ccc1C(=O)O [alisertib]
Procedure, shortened: as §1

[16] = compound: COc1cc2nc(-c3cc(F)ccc3O)nc(N[C@@H]3CNC[C@H]3C(C)(C)O)c2cc1OC
Procedure, shortened: as §1

[17] = compound: COc1cc2ncnc(Nc3ccc(F)c(Cl)c3)c2cc1OCCCN1CCOCC1 [gefitinib]
Procedure, shortened: as §1

[18] = compound: COc1cccc2cc(-c3nc([C@H]4CC[C@H](C(=O)O)CC4)n4ncnc(N)c34)[nH]c12
Procedure, shortened: as §1

[19] = compound: CS(=O)(=O)CCNCc1ccc(-c2ccc3ncnc(Nc4ccc(OCc5cccc(F)c5)c(Cl)c4)c3c2)o1 [lapatinib]
Procedure, shortened: as §1

[20] = compound: CS(=O)(=O)N1CCN(Cc2cc3nc(-c4cccc5[nH]ncc45)nc(N4CCOCC4)c3s2)CC1 [pictilisib]
Procedure, shortened: as §1

Measured: log2 fold change

TRIP4 (UniProt Q15650)
inactive: [1] -0.041 | [2] -0.115 | [3] -0.035 | [4] -0.026 | [5] -0.019 | [6] -0.092 | [7] 0.12 | [8] 0.041 | [9] 0.02 | [10] -0.041 | [11] 0.004 | [12] 0.037 | [13] 0.057 | [14] 0.043 | [15] -0.005 | [16] 0.002 | [17] 0.022 | [18] -0.026 | [19] 0.013 | [20] -0.107

TOR1AIP2 (UniProt Q8NFQ8)
inactive: [1] 0.012 | [2] -0.032 | [3] 0.014 | [4] 0.03 | [5] 0.033 | [6] 0.023 | [7] -0.032 | [8] -0.019 | [9] 0.015 | [10] -0.02 | [11] -0.063 | [12] 0.005 | [13] -0.011 | [14] -0.014 | [15] -0.058 | [16] -0.014 | [17] -0.012 | [18] 0.006 | [19] 0.046 | [20] 0.022

TOR1B (UniProt O14657)
inactive: [1] 0.025 | [2] -0.001 | [3] 0.017 | [4] -0.025 | [5] -0.031 | [6] -0.027 | [7] 0.001 | [8] -0.014 | [9] 0.032 | [10] 0.03 | [11] -0.018 | [12] 0.011 | [13] -0.008 | [14] -0.047 | [15] -0.049 | [16] -0.012 | [17] 0.009 | [18] 0.052 | [19] 0.002 | [20] -0.005

TPM3 isoform 4 (UniProt P06753)
inactive: [1] 0.037 | [2] 0.029 | [3] 0.068 | [4] -0.028 | [5] -0.1 | [6] 0.028 | [7] -0.047 | [8] -0.061 | [9] -0.001 | [10] 0.139 | [11] -0.116 | [12] 0.062 | [13] -0.093 | [14] 0.02 | [15] 0.029 | [16] 0.036 | [17] 0.06 | [18] 0.027 | [19] -0.001 | [20] -0.063

TNPO3 (UniProt Q9Y5L0)
inactive: [1] 0.034 | [2] -0.075 | [4] -0.03 | [5] -0.011 | [6] -0.067 | [7] 0 | [8] -0.013 | [9] 0.032 | [10] -0.003 | [11] 0.053 | [12] -0.094 | [13] 0.036 | [14] -0.074 | [15] -0.064 | [16] -0.035 | [17] -0.012 | [18] -0.004 | [19] -0.035 | [20] 0.077

TPK1 (UniProt Q9H3S4)
inactive: [1] 0.045 | [2] 0.054 | [3] -0.091 | [4] -0.093 | [5] 0.045 | [6] 0.035 | [8] -0.164 | [10] 0.005 | [11] 0.01 | [12] -0.011 | [13] -0.053 | [15] -0.147 | [16] 0 | [18] 0.019 | [19] 0.001 | [20] -0.076

TPI1 (UniProt P60174)
inactive: [1] 0.032 | [2] 0.065 | [3] -0.004 | [4] -0.022 | [5] 0.069 | [6] -0.005 | [7] -0.013 | [8] -0.019 | [9] -0.039 | [10] 0.024 | [11] -0.043 | [12] -0.001 | [13] -0.037 | [14] 0.014 | [15] -0.01 | [16] 0.044 | [17] -0.003 | [18] 0.03 | [19] -0.053 | [20] 0.058

TRAPPC13 isoform 5 (UniProt A5PLN9)
inactive: [1] 0.045 | [2] -0.061 | [4] 0.026 | [5] 0.04 | [6] -0.051 | [7] 0.072 | [8] -0.045 | [9] 0.217 | [10] -0.099 | [11] 0.094 | [12] 0.052 | [13] 0.045 | [14] -0.016 | [15] -0.123 | [16] 0.009 | [17] 0.005 | [18] -0.046 | [19] 0.116 | [20] 0.015

TPR (UniProt P12270)
inactive: [1] 0.152 | [2] -0.147 | [4] -0.035 | [5] 0.239 | [6] 0.005 | [7] -0.043 | [8] -0.112 | [9] -0.047 | [10] 0.023 | [11] -0.048 | [12] 0.115 | [13] 0.049 | [14] 0.055 | [15] -0.076 | [16] 0.065 | [17] -0.056 | [18] -0.06 | [19] 0.044 | [20] 0.036

TRIM38 (UniProt O00635)
inactive: [1] 0.107 | [2] -0.144 | [3] 0.032 | [5] -0.181 | [6] 0.014 | [8] -0.208 | [10] 0.073 | [11] -0.289 | [12] 0.211 | [13] -0.029 | [14] 0.017 | [15] -0.059 | [16] 0.009 | [17] 0.005 | [18] 0.049 | [19] -0.163 | [20] 0.433

TNRC6B (UniProt Q9UPQ9)
inactive: [1] 0.093 | [2] -0.152 | [3] 0.011 | [4] -0.061 | [5] -0.101 | [8] -0.092 | [11] -0.053 | [12] 0.368 | [13] -0.045 | [14] 0.118 | [16] 0.018 | [19] 0.059 | [20] -0.333

TP53BP1 isoform 2 (UniProt Q12888)
inactive: [1] 0.01 | [2] -0.112 | [4] 0.116 | [5] 0.061 | [6] -0.073 | [7] 0.025 | [8] -0.022 | [9] 0.059 | [10] 0.036 | [11] 0.006 | [12] 0.059 | [13] 0.054 | [14] 0.04 | [15] 0.046 | [16] -0.089 | [17] -0.014 | [18] -0.041 | [19] 0.028 | [20] 0

TP53BP2 isoform 3 (UniProt Q13625)
inactive: [1] -0.031 | [2] -0.055 | [3] -0.071 | [4] 0.055 | [5] 0.017 | [6] -0.115 | [8] -0.019 | [10] -0.028 | [11] 0.082 | [12] 0.108 | [13] -0.036 | [14] -0.015 | [16] -0.03 | [17] -0.06 | [19] 0.036 | [20] 0.162

Quoted from the entries so far (two entries):
TPR (UniProt P12270)
inactive: [1] 0.152 | [2] -0.147 | [4] -0.035 | [5] 0.239 | [6] 0.005 | [7] -0.043 | [8] -0.112 | [9] -0.047 | [10] 0.023 | [11] -0.048 | [12] 0.115 | [13] 0.049 | [14] 0.055 | [15] -0.076 | [16] 0.065 | [17] -0.056 | [18] -0.06 | [19] 0.044 | [20] 0.036

TRIM38 (UniProt O00635)
inactive: [1] 0.107 | [2] -0.144 | [3] 0.032 | [5] -0.181 | [6] 0.014 | [8] -0.208 | [10] 0.073 | [11] -0.289 | [12] 0.211 | [13] -0.029 | [14] 0.017 | [15] -0.059 | [16] 0.009 | [17] 0.005 | [18] 0.049 | [19] -0.163 | [20] 0.433

The listing continues:

TSC22D1 (UniProt Q15714)
inactive: [1] -0.034 | [2] -0.028 | [3] -0.068 | [4] 0.013 | [5] 0.029 | [6] 0.006 | [7] -0.012 | [8] -0.07 | [9] -0.013 | [10] -0.011 | [11] 0.072 | [12] -0.005 | [13] -0.022 | [14] -0.006 | [15] -0.042 | [16] 0.033 | [17] 0.015 | [18] 0.006 | [19] 0.099 | [20] 0.11

TPX2 (UniProt Q9ULW0)
inactive: [1] 0.03 | [2] -0.022 | [3] 0.04 | [4] 0.027 | [5] 0.013 | [6] 0.062 | [7] 0.053 | [8] -0.028 | [9] 0 | [10] 0.046 | [11] -0.032 | [12] 0.122 | [13] -0.021 | [14] 0.094 | [15] -0.088 | [16] 0.126 | [17] 0.005 | [18] 0.127 | [19] 0.026 | [20] 0.068

TOM1L2 (UniProt Q6ZVM7)
inactive: [1] -0.02 | [2] -0.091 | [5] -0.102 | [6] -0.072 | [8] -0.05 | [10] 0.058 | [11] -0.04 | [12] 0.029 | [13] -0.036 | [14] -0.002 | [17] 0.028
active: [3] -0.357

TNFRSF8 (UniProt P28908)
inactive: [1] 0.037 | [2] 0.092 | [4] 0.031 | [5] -0.013 | [6] -0.034 | [7] 0.012 | [8] 0.04 | [9] -0.046 | [10] -0.02 | [11] 0.019 | [12] 0.11 | [13] -0.019 | [14] 0.04 | [15] -0.011 | [16] 0.074 | [17] 0.067 | [18] 0 | [19] 0.003 | [20] 0.047
